Test in all cases: co-IP
Experiment [1] addresses RIPK3 (endogenous, RAW264.7) (mouse (endogenous in RAW264.7)), Q9QZL0. As to conditions: remark: other sources report otherwise.
A further experiment deals with RIPK3 (UniProt Q9Y572).
In a further experiment the target is T1, SPAG9-Flag (UniProt O60271).
T1 sequence: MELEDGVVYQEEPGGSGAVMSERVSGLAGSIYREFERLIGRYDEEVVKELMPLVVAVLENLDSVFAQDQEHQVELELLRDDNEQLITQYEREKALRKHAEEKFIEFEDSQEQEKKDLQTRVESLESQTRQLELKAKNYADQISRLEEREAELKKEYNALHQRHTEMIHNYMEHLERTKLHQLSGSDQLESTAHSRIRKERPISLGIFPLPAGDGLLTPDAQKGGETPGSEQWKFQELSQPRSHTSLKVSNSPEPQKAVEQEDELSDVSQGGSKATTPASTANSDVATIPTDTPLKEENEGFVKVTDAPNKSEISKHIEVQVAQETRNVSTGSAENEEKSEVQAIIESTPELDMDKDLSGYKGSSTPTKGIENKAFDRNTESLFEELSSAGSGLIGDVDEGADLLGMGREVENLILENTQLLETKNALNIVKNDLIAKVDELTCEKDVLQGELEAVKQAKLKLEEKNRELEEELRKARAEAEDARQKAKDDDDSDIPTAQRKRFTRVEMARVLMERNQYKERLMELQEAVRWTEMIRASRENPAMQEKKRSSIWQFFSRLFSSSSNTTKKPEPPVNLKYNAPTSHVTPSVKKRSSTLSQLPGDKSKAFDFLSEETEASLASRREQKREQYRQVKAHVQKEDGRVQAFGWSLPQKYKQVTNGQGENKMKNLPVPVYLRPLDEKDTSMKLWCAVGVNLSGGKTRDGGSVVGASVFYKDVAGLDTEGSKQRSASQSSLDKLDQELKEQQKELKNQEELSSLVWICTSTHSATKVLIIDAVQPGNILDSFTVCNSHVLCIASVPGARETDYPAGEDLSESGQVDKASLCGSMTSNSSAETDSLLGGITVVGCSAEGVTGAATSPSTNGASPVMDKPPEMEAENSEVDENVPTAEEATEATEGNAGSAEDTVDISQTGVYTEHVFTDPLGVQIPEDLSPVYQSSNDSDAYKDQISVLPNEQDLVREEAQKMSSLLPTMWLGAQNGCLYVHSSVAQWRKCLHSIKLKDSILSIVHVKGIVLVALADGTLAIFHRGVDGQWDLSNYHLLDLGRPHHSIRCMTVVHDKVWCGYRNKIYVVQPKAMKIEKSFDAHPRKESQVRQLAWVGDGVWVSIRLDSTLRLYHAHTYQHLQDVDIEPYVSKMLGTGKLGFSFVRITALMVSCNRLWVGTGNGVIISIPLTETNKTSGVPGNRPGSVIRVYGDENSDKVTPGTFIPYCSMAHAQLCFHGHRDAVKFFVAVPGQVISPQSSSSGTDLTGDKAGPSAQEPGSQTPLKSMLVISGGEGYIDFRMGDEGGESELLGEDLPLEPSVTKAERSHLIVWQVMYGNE

Chains of the proteins cited; added tags and fusions are not shown.
UniProt Q9Y572: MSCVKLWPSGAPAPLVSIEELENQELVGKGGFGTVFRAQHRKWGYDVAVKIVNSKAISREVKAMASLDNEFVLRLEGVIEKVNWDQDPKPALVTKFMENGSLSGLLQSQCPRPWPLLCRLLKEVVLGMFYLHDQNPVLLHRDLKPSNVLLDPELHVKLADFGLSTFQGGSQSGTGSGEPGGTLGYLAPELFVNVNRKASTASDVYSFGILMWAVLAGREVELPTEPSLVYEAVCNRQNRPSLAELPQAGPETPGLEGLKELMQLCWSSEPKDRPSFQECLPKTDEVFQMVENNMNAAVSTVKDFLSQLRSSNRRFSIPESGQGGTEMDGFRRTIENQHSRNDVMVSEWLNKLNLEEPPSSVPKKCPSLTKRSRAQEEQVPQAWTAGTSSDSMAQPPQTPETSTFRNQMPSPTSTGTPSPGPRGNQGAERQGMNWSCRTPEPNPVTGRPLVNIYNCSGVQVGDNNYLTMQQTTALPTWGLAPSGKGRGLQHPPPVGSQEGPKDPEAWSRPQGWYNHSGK

Results are given in words; binding and its absence hold for the method and conditions named. Binding seen in cells or lysates may run through a third protein. Some results given as binding are weak or reduced against the parent protein; the word gives no strength. For some assays here: Where a sequence is shown, tags or fusion partners need not be part of it.

B1: RIPK1 (endogenous, RAW264.7), Q60855 1-656 (protein)
chain: MQPDMSLDNIKMASSDLLEKTDLDSGGFGKVSLCYHRSHGFVILKKVYTGPNRAEYNEVLLEEGKMMHRLRHSRVVKLLGIIIEEGNYSLVMEYMEKGNLMHVLKTQIDVPLSLKGRIIVEAIEGMCYLHDKGVIHKDLKPENILVDRDFHIKIADLGVASFKTWSKLTKEKDNKQKEVSSTTKKNNGGTLYYMAPEHLNDINAKPTEKSDVYSFGIVLWAIFAKKEPYENVICTEQFVICIKSGNRPNVEEILEYCPREIISLMERCWQAIPEDRPTFLGIEEEFRPFYLSHFEEYVEEDVASLKKEYPDQSPVLQRMFSLQHDCVPLPPSRSNSEQPGSLHSSQGLQMGPVEESWFSSSPEYPQDENDRSVQAKLQEEASYHAFGIFAEKQTKPQPRQNEAYNREEERKRRVSHDPFAQQRARENIKSAGARGHSDPSTTSRGIAVQQLSWPATQTVWNNGLYNQHGFGTTGTGVWYPPNLSQMYSTYKTPVPETNIPGSTPTMPYFSGPVADDLIKYTIFNSSGIQIGNHNYMDVGLNSQPPNNTCKEESTSRHQAIFDNTTSLTDEHLNPIRENLGRQWKNCARKLGFTESQIDEIDHDYERDGLKEKVYQMLQKWLMREGTKGATVGKLAQALHQCCRIDLLNHLIRASQS
In the case of B1, in experiment [1], the binding entry is “binds”.

B2: DNA-dependent activator of interferon-regulatory factor (DAI) (protein, UniProt Q9H171 1-429)
chain: MAQAPADPGREGHLEQRILQVLTEAGSPVKLAQLVKECQAPKRELNQVLYRMKKELKVSLTSPATWCLGGTDPEGEGPAELALSSPAERPQQHAATIPETPGPQFSQQREEDIYRFLKDNGPQRALVIAQALGMRTAKDVNRDLYRMKSRHLLDMDEQSKAWTIYRPEDSGRRAKSASIIYQHNPINMICQNGPNSWISIANSEAIQIGHGNIITRQTVSREDGSAGPRHLPSMAPGDSSTWGTLVDPWGPQDIHMEQSILRRVQLGHSNEMRLHGVPSEGPAHIPPGSPPVSATAAGPEASFEARIPSPGTHPEGEAAQRIHMKSCFLEDATIGNSNKMSISPGVAGPGGVAGSGEGEPGEDAGRRPADTQSRSHFPRDIGQPITPSHSKLTPKLETMTLGNRSHKAAEGSHYVDEASHEGSWWGGGI
Consider B2, for which the binding entry in the experiment with RIPK3 and with SPAG9-Flag was “binds” each time.

B3: TurboID-DAI (protein, UniProt Q9H171 1-429)
chain: MAQAPADPGREGHLEQRILQVLTEAGSPVKLAQLVKECQAPKRELNQVLYRMKKELKVSLTSPATWCLGGTDPEGEGPAELALSSPAERPQQHAATIPETPGPQFSQQREEDIYRFLKDNGPQRALVIAQALGMRTAKDVNRDLYRMKSRHLLDMDEQSKAWTIYRPEDSGRRAKSASIIYQHNPINMICQNGPNSWISIANSEAIQIGHGNIITRQTVSREDGSAGPRHLPSMAPGDSSTWGTLVDPWGPQDIHMEQSILRRVQLGHSNEMRLHGVPSEGPAHIPPGSPPVSATAAGPEASFEARIPSPGTHPEGEAAQRIHMKSCFLEDATIGNSNKMSISPGVAGPGGVAGSGEGEPGEDAGRRPADTQSRSHFPRDIGQPITPSHSKLTPKLETMTLGNRSHKAAEGSHYVDEASHEGSWWGGGI
Regarding B3, in the experiment with RIPK3, the binding result is “binds”.

B4: DAI-TurboID (protein, UniProt Q9H171 1-429)
chain: MAQAPADPGREGHLEQRILQVLTEAGSPVKLAQLVKECQAPKRELNQVLYRMKKELKVSLTSPATWCLGGTDPEGEGPAELALSSPAERPQQHAATIPETPGPQFSQQREEDIYRFLKDNGPQRALVIAQALGMRTAKDVNRDLYRMKSRHLLDMDEQSKAWTIYRPEDSGRRAKSASIIYQHNPINMICQNGPNSWISIANSEAIQIGHGNIITRQTVSREDGSAGPRHLPSMAPGDSSTWGTLVDPWGPQDIHMEQSILRRVQLGHSNEMRLHGVPSEGPAHIPPGSPPVSATAAGPEASFEARIPSPGTHPEGEAAQRIHMKSCFLEDATIGNSNKMSISPGVAGPGGVAGSGEGEPGEDAGRRPADTQSRSHFPRDIGQPITPSHSKLTPKLETMTLGNRSHKAAEGSHYVDEASHEGSWWGGGI
Regarding B4, the binding entry with RIPK3 is given as “binds”.
